# Results of single-concentration screens

Mtb cholesterol medium: 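Growth of Mycobacterium tuberculosis over 4 days (cholesterol / DPPC medium with tyloxapol); the read-out is not stated. Concentration: 50 µM. Direction is inferred from retests: higher values go with more growth inhibition. About 69,000 compounds were tested under these conditions; 0.54% (about 370) showed 50% or more at least once.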
Mtb glucose medium: 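Phenotypic screen: M. tuberculosis growth, glucose 7H9 medium, 3 days; the read-out is not stated. Tested at 50 µM. The record gives no direction; compounds that gave an IC50 in retests scored well above the rest, so higher reads as more growth inhibition. Of about 69,000 compounds tested this way, about 760 (1.1%) reached 50% or more in at least one test.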

Each number is a percent effect as filed. The controls that fix the scale are not given in the record; negative values are as filed. The compounds are a random part of those screened. Two or more numbers in one place are separate tests of the same structure; such repeats can differ widely.

- [H][C@@]12OCCN(C(=O)c3ccccc3F)[C@@]1([H])CC[C@H]2OCCN(C)C | Mtb cholesterol medium: -14.37%; Mtb glucose medium: 14.11%
- CN1CCCC1CCn1ccnc1-c1ccc2ccccc2n1 (configuration not stated) | Mtb cholesterol medium: 31.56% and 16.86%; Mtb glucose medium: 9.955%
- O=C(O)C(F)(F)F.O=C(O)C(F)(F)F.O=C(c1n[nH]c2c1CN(C1CCOCC1)CC2)N1CCCC1 | Mtb cholesterol medium: -15.2%; Mtb glucose medium: -12.03%
- O=C(Cn1ncc(N2CCNCC2)cc1=O)NCCc1ccc(F)cc1 | Mtb cholesterol medium: 2.409%; Mtb glucose medium: 17.61%
- CC(=O)c1ccc(NCc2cc3n(n2)CCCN(S(C)(=O)=O)C3)nc1 | Mtb cholesterol medium: -1.344%; Mtb glucose medium: -3.836%
- CC(C)(N)c1nc(C(F)F)cc(=O)[nH]1.Cl | Mtb cholesterol medium: -13.05% and -6.711%; Mtb glucose medium: -11.41%
- COCCN1C(=O)CCC12CCCN(C(=O)CC1CC1)CC2 (configuration not stated) | Mtb cholesterol medium: -4.314% and -14.92%; Mtb glucose medium: -6.632%
- Cc1cc(C(=O)NCC2CCC3(CC2)OCCO3)[nH]n1 | Mtb cholesterol medium: 5.618%; Mtb glucose medium: -3.176% and 0.2273%
- N#Cc1ccc(NCCCOCC2CCCO2)c(F)c1 (configuration not stated) | Mtb cholesterol medium: 24.08%; Mtb glucose medium: 0.1589%
- Cn1cc(-c2cnc(N3CCOCC3)nc2)cc1C(=O)NC1CC1 | Mtb cholesterol medium: -4.911% and 7.322%; Mtb glucose medium: 14.01%
- Cc1cc(CN2CCC3(CC2)CC(C(=O)O)N(C(=O)C2CC2)C3)oc1C (configuration not stated) | Mtb cholesterol medium: 12.88%; Mtb glucose medium: 21.74%
- Cc1ccc(C(=O)N2CCCC(n3cncn3)C2)o1 (configuration not stated) | Mtb cholesterol medium: -4.474%; Mtb glucose medium: 16.63%
- O=C(c1ccc2c(c1)OCCCO2)N1CCCC(n2cccn2)C1 (configuration not stated) | Mtb cholesterol medium: -17.44%; Mtb glucose medium: 6.845%
- O=S(=O)(N1CCCCCC1)N1CCN(Cc2ccc(F)cc2Br)CC1 | Mtb cholesterol medium: 19.29%; Mtb glucose medium: 27.85%
- Cc1nn(C)c(Oc2ccc(Cl)cc2)c1CN1CCOC(CN)C1 (configuration not stated) | Mtb cholesterol medium: -4.435%; Mtb glucose medium: -7.159%
- CCc1nccn1-c1cncc(C2CCCN2Cc2ccccn2)n1 (configuration not stated) | Mtb cholesterol medium: 11.41%; Mtb glucose medium: 4.908%
- Cc1ccc2c(c1)C(=O)CC1(CCN(Cc3ccccc3)CC1)O2 | Mtb cholesterol medium: -0.5464%; Mtb glucose medium: -29.73%
- CCc1nc(CCNc2ncccc2S(N)(=O)=O)sc1C | Mtb cholesterol medium: 7.865%; Mtb glucose medium: -17.14% and 14.54%
- Cc1nc(C)n(CC2CN(c3ncccn3)Cc3nccn3C2)n1 (configuration not stated) | Mtb cholesterol medium: 4.009%; Mtb glucose medium: 11.28%
- Cc1sc(Oc2ccccc2Cl)nc1C(=O)O | Mtb cholesterol medium: 7.341% and -14.97%; Mtb glucose medium: 19.17%
- Cc1cc(NC(=O)NCc2nncn2C)ccc1OC(C)C | Mtb cholesterol medium: -20.68% and -10%; Mtb glucose medium: -27.17%
- [H][C@@]12CS(=O)(=O)C[C@]1([H])N(C(=O)CCn1cc(Cl)cn1)CCN2CC1CC1 | Mtb cholesterol medium: 18.67%; Mtb glucose medium: -20.52%
- CC(=O)c1ccc(C(=O)Nc2ccnc(N(C)C)n2)cc1 | Mtb cholesterol medium: 54.97%; Mtb glucose medium: 13.38%
- [H][C@]12C[C@H](CNC(=O)c3cccn3C)O[C@]1([H])CN(C(=O)c1ccno1)C2 | Mtb cholesterol medium: -9.953%; Mtb glucose medium: -3.869% and -33.17%
- O=C(CCc1ccsc1)NCC1CCN(Cc2cccs2)CC1 | Mtb cholesterol medium: 17.96%; Mtb glucose medium: 21.96% and 1.006%
- CN1CCCN(c2nccc(-c3c[nH]c4ccc(Br)cc34)n2)CC1 | Mtb cholesterol medium: 6.683%; Mtb glucose medium: 39.77%
- O=C1CN(C(=O)C2CN(c3ccccc3)CCO2)CCN1 (configuration not stated) | Mtb cholesterol medium: 0.5498% and 0.2366%; Mtb glucose medium: -13.68%
- CC(C)CC(=O)N1CC(=O)c2sc(Nc3ccc(F)cc3F)nc2C1 | Mtb cholesterol medium: -7.77%; Mtb glucose medium: 12.02%
- Cn1cc(CN2Cc3c(cnn3C)C(COCC3CC3)C2)cn1.O=C(O)C(F)(F)F.O=C(O)C(F)(F)F (configuration not stated) | Mtb cholesterol medium: -1.946%; Mtb glucose medium: -16.92%
- COc1ccccc1-c1ccnc2nc(N3CCCCC3)[nH]c(=O)c12 | Mtb cholesterol medium: -14.83%; Mtb glucose medium: 23.85%
- OCCNc1nccc(-c2c[nH]nc2-c2cccnc2)n1 | Mtb cholesterol medium: -8.309%; Mtb glucose medium: 6.728%
- COC(=O)C(C)(C)NC(=O)C1CC(=O)N(C2CC2)C1 (configuration not stated) | Mtb cholesterol medium: 9.979%; Mtb glucose medium: 6.661%
- Cc1cccc(OCCNC(=O)C(C)S(=O)(=O)c2ccccn2)c1 (configuration not stated) | Mtb cholesterol medium: -11.22%; Mtb glucose medium: -4.134% and -17.72%
- O=C(O)C(F)(F)F.[H][C@@]12CCCO[C@]1([H])[C@H](NC(=O)c1cnccn1)CN(C1CCCC1)C2 | Mtb cholesterol medium: -20.04%; Mtb glucose medium: -5.37% and 6.565%
- COc1ccc(CNC(C)c2ccccc2Cl)c(OC)c1OC.Cl (configuration not stated) | Mtb cholesterol medium: 10.64% and -1.808%; Mtb glucose medium: -0.1551%
- COC1CCN(S(=O)(=O)NCC2COc3ccccc3C2)CC1 (configuration not stated) | Mtb cholesterol medium: -24.88%; Mtb glucose medium: -18.26%
- Cc1nn(C)c(C)c1CN(Cc1cccn1-c1ncccn1)C(C)C | Mtb cholesterol medium: -24.58%; Mtb glucose medium: -16.55%

4 of the entries, repeated:

With CN1CCCN(c2nccc(-c3c[nH]c4ccc(Br)cc34)n2)CC1 the screen gave Mtb cholesterol medium: 6.683%; Mtb glucose medium: 39.77%.
With CCc1nccn1-c1cncc(C2CCCN2Cc2ccccn2)n1 (configuration not stated) the screen gave Mtb cholesterol medium: 11.41%; Mtb glucose medium: 4.908%.
With O=C(c1ccc2c(c1)OCCCO2)N1CCCC(n2cccn2)C1 (configuration not stated) the screen gave Mtb cholesterol medium: -17.44%; Mtb glucose medium: 6.845%.
With COC(=O)C(C)(C)NC(=O)C1CC(=O)N(C2CC2)C1 (configuration not stated) the screen gave Mtb cholesterol medium: 9.979%; Mtb glucose medium: 6.661%.

From ChEMBL document CHEMBL3988442, “University of Dundee, Small-Polar-MMV Screening Library” (2021).